US10287320B2, “Anti-lymphoma peptides” (Universitetet i Tromsø—Norges Arktiske Universitet, priority 2014, dated 2019)
At least one peptide structure holds a part that was inferred or is arguable (an end, a ring closure or a residue). Some entries share one result that the patent states for a list of compounds. Ends that are not written are not given here.

Columns and labels:
[1] = system: A20 cells; test: MTT cytotoxicity assay against A20 lymphoma cells; assay type: cell-based, Murine; details: for IC50: Table 3, A20 cells, MTT, 4 hrs treatment; for ΔIC50 (difference in activity against A20): compared with peptide 4a
Experimental: (§1) The first screen against A20 and MRC-5 was done manually, while the lymphoma panel screen were done at Marbio (Tromsø) using an automated platform (Biomek NX, Beckman Coulter). Cells were automatically counted (Z1 Coulter Particle Counter, Beckman Coulter) and the cells seeded out in 96-well plates. The plates were incubated for at least 16 hours before the start of the assay. The growth media was removed and the cells washed once with 100 μL assay media (RPMI-1640). Cells were then treated with 100 μL peptide solution (concentration varying from 500-10 μg/mL) for 4 hrs. Normal assay media and assay media containing 0.1% Triton were used as negative and positive controls, respectively. After this period 10 μL of a MTT solution (5 mg/mL) was added to each well and the plate incubated for a further 2 hrs. Following this 70 μL of the media was carefully removed and 100 μL acidified isopropanol added. The formed formazan crystals were dissolved by agitating the cells with a micropipette and by shaking (30 mins). The absorbance of the reduced MTT (formazan) was read on Versa Max Microplate Reader (Molecular Devices) at 590 nm. All assays, unless mentioned otherwise, were done in triplicate.

[2] = system: MRC-5 cells; test: MTT cytotoxicity assay against MRC-5 normal fibroblasts (selectivity, SI-1); assay type: cell-based, Human
Experimental: The first screen against A20 and MRC-5 was done manually, while the lymphoma panel screen were done at Marbio (Tromsø) using an automated platform (Biomek NX, Beckman Coulter).
Cells were automatically counted (Z1 Coulter Particle Counter, Beckman Coulter) and the cells seeded out in 96-well plates. The plates were incubated for at least 16 hours before the start of the assay.
as §1, with “The” for “The first screen against A20 and MRC-5 was done manually, while the lymphoma panel screen were done at Marbio (Tromsø) using an automated platform (Biomek NX, Beckman Coulter). Cells were automatically counted (Z1 Coulter Particle Counter, Beckman Coulter) and the cells seeded out in 96-well plates. The plates were incubated for at least 16 hours before the start of the assay. The”
During the initial screening process peptide analogues was tested against normal human fibroblasts (SI-1) and the results used to estimate cytotoxicity towards healthy cells surrounding the tumor.

[3] = system: A20 cells; test: Mitochondrial membrane potential assessment (TMRE, flow cytometry); assay type: cell-based, Murine; details: peptides at IC50, measured at 60, 120, 180 and 240 minutes
[4] = system: A20 lymphomas; assay type: in vivo; details: intralesional injection once a day for three consecutive days
Experimental: A20 tumor cells were harvested, washed in RPMI-1640 and inoculated (i.d.) into the left side of the abdomen in BALB/c mice (5×10^6 cells in 50 μl RPMI-1640 per mouse). When the tumor size reached 20 mm^2 the mice were split into three groups and treated; Group1—nine mice with the vehicle (0.9% NaCl in sterile H2O), Group2a—eight mice where the tumors were treated with peptide 6a, and Group 3a—nine mice where the tumors were treated with peptide 11. Intralesional injections were performed once a day for three consecutive days.
Tumor size was measured three times a week using an electronic caliper and expressed as the area of an ellipse [(maximum dimension/2)×(minimum dimension/2)×[…]. Animals were killed when the tumor exceeded 100 mm^2. Animals were killed also if the tumor had not reached that size but presented ulcerations or the animals developed metastasis.
Survival curves were compared by the log-rank test. Groups were compared using one-way ANOVA test with Tukey's multiple comparison. Differences were considered significant when P<0.05.

[5] = system: A20 lymphoma cells; test: Secondary tumor challenge (rechallenge) with A20 lymphoma cells in cured mice; assay type: in vivo, BALB/c mice; details: for mice tumor-free at the end of the study: two months post tumor rechallenge; for mice that developed tumors after rechallenge: within ten days after tumor rechallenge, cured mice
[6] = system: Ramos cells; test: Transmission electron microscopy of treated cells; assay type: cell-based, Human; details: different time points and concentrations

| Substance | IC50 [1] | activity against normal fibroblast cells [2] | effect on mitochondrial membrane potential (Δψm) [3] | complete tumor regression (mice) [4] | protective immunity after rechallenge [5] | mice tumor-free at the end of the study [5] | mice that developed tumors after rechallenge [5] | ΔIC50 (difference in activity against A20) [1] | morphology by TEM [6] |
| --- | --- | --- | --- | --- | --- | --- | --- | --- | --- |
| WRRRRRWRRRRW-NH2 [Peptide 11, WRRRRRWRRRRW (SEQ ID NO: 23)] | 5.5 µM | Almost no activity | after four hours of treatment the effect on Δψm was the same for both peptides | six out of nine | genuine protective immunity | five | five of the six |  |  |
| WRWRWGGRRRRRRR-NH2 [Peptide 6a, WRWRW-GG-RRRRRRR (SEQ ID NO: 14)] | 4.1 µM |  | faster acting than 11 | four out of eight | the immune response was not strong enough to inhibit tumor growth | one | three out of the four | < 5 µM | signs of extensive necrosis |
| WR(Tbt)-GG-RRRRRRR (SEQ ID NO: 16) [Peptide 4b] |  |  |  |  |  |  |  | < 5 µM |  |
